Publication PMC8010718, “Direct coupling of oligomerization and oligomerization-driven endocytosis of the dopamine transporter to its conformational mechanics and activity” (The Journal of Biological Chemistry, 2021)
These are yes or no findings as the source states them, for the method shown. For part of these data: In cells and extracts the contact can be indirect. Some entries that bind do so weakly or less than the wild type. Values belong to the substance of their own block, whether it stands above or below them.

Columns and labels:
[1] = target: CFP-DAT and YFP-DAT (two differently tagged copies of DAT, co-expressed) (UniProt Q01959); test: FRET or BRET; sensitized FRET microscopy from CFP to YFP in living PAE cells co-expressing CFP-DAT and YFP-DAT; vehicle, AL3, AL4 or AL8 (20 μM, 90 min, 37 °C); imaging at room temperature
[2] = target: TM4-9 mutant of YFP-HA-DAT (I248F, V249T, L458F, L459G) (human) (UniProt Q01959); test: SDS-resistant oligomers on SDS-PAGE and Western blot; PAE cells stably expressing the tagged transporter, incubated with vehicle (DMSO), AIM-100 or ALs (20 μM, 2 h, 37 °C), with or without cocaine; lysis in TGH with 1% deoxycholate; Laemmli buffer 5 min 95 °C; 7.5% SDS-PAGE; GFP antibody
[3] = target: YFP-HA-ΔN-DAT (DAT lacking the N-terminal residues 1-65) (human) (UniProt Q01959); test: as above

Substance: CFP-DAT and YFP-DAT (two differently tagged copies of DAT, co-expressed) (from UniProt Q01959 1-620)
binding [1]: binds

binding [2]: binds
Substance: TM4-9 mutant of YFP-HA-DAT (I248F, V249T, L458F, L459G) (from UniProt Q01959 1-620)

binding [3]: binds
Substance: YFP-HA-ΔN-DAT (DAT lacking the N-terminal residues 1-65) (from UniProt Q01959 66-620) (domain or fragment)
